For 2 substances, binding results are on record in publication PMC12241364.

Amino acid sequences for entries named in this document (tags omitted).
UniProt Q0D2I5: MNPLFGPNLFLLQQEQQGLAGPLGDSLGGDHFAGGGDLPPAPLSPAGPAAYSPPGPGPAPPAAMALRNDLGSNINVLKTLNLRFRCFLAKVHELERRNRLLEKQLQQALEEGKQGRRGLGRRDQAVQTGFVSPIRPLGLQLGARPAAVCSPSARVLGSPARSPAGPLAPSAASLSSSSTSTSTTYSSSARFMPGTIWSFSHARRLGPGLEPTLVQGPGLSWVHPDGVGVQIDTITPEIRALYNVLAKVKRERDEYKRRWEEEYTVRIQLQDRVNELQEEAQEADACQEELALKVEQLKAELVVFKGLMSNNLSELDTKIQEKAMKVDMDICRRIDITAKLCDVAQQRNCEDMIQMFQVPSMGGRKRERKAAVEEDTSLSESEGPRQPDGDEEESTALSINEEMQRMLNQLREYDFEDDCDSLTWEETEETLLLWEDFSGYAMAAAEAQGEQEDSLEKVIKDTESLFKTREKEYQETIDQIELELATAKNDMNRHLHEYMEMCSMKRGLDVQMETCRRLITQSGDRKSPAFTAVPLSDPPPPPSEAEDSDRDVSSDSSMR
UniProt P60953: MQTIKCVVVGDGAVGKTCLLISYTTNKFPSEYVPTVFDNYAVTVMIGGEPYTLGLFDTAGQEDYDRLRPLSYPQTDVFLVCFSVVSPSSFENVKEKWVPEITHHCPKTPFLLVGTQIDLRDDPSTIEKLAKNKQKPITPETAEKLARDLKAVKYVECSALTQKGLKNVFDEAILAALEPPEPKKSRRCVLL
UniProt Q86VI3: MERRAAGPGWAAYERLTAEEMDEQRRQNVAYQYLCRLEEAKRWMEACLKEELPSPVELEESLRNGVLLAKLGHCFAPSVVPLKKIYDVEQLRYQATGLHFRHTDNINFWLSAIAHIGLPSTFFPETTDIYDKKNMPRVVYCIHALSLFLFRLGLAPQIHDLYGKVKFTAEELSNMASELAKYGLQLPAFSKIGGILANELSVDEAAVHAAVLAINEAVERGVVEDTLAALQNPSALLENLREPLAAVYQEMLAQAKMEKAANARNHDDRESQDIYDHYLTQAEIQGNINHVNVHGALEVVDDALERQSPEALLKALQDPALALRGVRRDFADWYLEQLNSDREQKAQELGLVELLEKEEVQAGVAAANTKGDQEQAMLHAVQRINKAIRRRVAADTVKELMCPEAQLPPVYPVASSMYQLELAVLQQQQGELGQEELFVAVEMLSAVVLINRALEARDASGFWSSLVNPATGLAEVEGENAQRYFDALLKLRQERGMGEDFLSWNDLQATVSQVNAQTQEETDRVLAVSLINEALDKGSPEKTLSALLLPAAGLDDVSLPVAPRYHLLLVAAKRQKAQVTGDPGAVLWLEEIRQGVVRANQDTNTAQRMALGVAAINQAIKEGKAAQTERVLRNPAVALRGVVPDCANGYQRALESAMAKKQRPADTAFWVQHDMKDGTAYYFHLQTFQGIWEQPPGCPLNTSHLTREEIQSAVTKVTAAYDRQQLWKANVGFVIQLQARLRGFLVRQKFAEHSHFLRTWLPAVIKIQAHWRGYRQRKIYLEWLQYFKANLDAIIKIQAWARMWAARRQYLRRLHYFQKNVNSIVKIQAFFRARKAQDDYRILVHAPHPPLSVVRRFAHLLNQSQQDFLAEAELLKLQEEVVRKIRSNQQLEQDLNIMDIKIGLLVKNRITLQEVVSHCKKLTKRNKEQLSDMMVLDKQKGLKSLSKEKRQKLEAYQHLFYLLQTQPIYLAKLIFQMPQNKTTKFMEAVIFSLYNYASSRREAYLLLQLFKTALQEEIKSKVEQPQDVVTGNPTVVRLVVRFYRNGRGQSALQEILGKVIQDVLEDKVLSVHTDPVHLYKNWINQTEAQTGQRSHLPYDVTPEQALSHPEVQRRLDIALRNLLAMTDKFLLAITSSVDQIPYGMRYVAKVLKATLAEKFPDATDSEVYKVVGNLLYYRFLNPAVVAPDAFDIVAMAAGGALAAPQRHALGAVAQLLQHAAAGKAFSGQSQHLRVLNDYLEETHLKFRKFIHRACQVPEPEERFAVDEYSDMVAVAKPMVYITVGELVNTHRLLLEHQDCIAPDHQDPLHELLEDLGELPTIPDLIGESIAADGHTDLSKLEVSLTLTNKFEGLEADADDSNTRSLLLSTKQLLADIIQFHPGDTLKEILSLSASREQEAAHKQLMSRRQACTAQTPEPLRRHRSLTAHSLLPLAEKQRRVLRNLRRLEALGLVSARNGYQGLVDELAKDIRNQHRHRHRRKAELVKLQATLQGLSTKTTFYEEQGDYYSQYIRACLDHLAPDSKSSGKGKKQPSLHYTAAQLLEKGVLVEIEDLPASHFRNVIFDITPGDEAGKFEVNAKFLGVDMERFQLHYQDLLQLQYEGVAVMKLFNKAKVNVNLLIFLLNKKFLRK

This assay has as its target Flag-tagged IFFO1 (full-length) (UniProt Q0D2I5). As to the kind of experiment: affinity purification with mass spectrometry; Flag-tagged IFFO1 immunoprecipitated from tumor cells; silver staining and peptide identification by LC-MS/MS.

Results are given in words; binding and its absence hold for the method and conditions named. Binding seen in cells or lysates may run through a third protein. Here binding means that the protein was enriched with, or labelled near, the bait; the list need not be complete. A no says only that the protein was not detected with the bait.

For “Cdc42, endogenous (from UniProt P60953 1-191)”, the binding result is “no binding”. On to “IQGAP3 (IQ motif-containing GTPase-activating protein 3), endogenous (from UniProt Q86VI3 1-1631)”, for which the binding result is given as “binds”.
